Our source for the binding values is PMC11131025.

Results are given in words; binding and its absence hold for the method and conditions named. In cells and extracts the contact can be indirect. These calls come from enrichment with a bait or labelling near it, and not all partners need be listed. Tags and fused reporters may be left off the sequences shown.

The target in the assay is T1, FLAG-tagged NOD1 overexpressed in HEK293T cells (human) (UniProt Q9Y239).
T1 sequence: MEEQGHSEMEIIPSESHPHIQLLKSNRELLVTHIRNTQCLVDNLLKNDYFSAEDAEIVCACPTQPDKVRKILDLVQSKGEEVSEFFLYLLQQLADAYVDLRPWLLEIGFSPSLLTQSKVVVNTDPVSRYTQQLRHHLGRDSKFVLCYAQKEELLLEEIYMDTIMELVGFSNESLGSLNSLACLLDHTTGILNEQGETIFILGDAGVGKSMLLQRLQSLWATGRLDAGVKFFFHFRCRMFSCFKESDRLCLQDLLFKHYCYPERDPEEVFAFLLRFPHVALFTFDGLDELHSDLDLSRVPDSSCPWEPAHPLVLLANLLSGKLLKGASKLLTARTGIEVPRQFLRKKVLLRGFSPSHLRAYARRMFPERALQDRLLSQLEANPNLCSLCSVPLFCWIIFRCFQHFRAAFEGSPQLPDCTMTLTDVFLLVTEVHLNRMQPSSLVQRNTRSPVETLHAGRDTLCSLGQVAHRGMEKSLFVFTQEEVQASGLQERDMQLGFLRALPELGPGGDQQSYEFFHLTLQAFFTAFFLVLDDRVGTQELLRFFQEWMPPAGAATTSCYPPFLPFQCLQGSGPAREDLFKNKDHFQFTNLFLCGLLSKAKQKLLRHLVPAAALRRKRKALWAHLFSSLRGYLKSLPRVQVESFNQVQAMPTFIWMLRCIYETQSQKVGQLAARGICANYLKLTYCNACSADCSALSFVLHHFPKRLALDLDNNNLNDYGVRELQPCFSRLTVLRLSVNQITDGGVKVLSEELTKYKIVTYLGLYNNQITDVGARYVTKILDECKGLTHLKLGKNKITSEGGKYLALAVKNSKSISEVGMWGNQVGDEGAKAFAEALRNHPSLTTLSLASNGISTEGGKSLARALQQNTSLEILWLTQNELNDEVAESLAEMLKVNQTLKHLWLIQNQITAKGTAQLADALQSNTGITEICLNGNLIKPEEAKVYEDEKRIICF
As to the kind of experiment: affinity purification with mass spectrometry; FLAG-tagged NOD1 or empty vector overexpressed in HEK293T, immunoprecipitation from whole cell lysates, LC/MS; cells pretreated with MG132 (10 umol/L, 2 h); two duplicates.

B1: cyclin G-associated kinase (GAK), endogenous in HEK293T cells (enzyme, UniProt O14976 1-1311)
chain: MSLLQSALDFLAGPGSLGGASGRDQSDFVGQTVELGELRLRVRRVLAEGGFAFVYEAQDVGSGREYALKRLLSNEEEKNRAIIQEVCFMKKLSGHPNIVQFCSAASIGKEESDTGQAEFLLLTELCKGQLVEFLKKMESRGPLSCDTVLKIFYQTCRAVQHMHRQKPPIIHRDLKVENLLLSNQGTIKLCDFGSATTISHYPDYSWSAQRRALVEEEITRNTTPMYRTPEIIDLYSNFPIGEKQDIWALGCILYLLCFRQHPFEDGAKLRIVNGKYSIPPHDTQYTVFHSLIRAMLQVNPEERLSIAEVVHQLQEIAAARNVNPKSPITELLEQNGGYGSATLSRGPPPPVGPAGSGYSGGLALAEYDQPYGGFLDILRGGTERLFTNLKDTSSKVIQSVANYAKGDLDISYITSRIAVMSFPAEGVESALKNNIEDVRLFLDSKHPGHYAVYNLSPRTYRPSRFHNRVSECGWAARRAPHLHTLYNICRNMHAWLRQDHKNVCVVHCMDGRAASAVAVCSFLCFCRLFSTAEAAVYMFSMKRCPPGIWPSHKRYIEYMCDMVAEEPITPHSKPILVRAVVMTPVPLFSKQRSGCRPFCEVYVGDERVASTSQEYDKMRDFKIEDGKAVIPLGVTVQGDVLIVIYHARSTLGGRLQAKMASMKMFQIQFHTGFVPRNATTVKFAKYDLDACDIQEKYPDLFQVNLEVEVEPRDRPSREAPPWENSSMRGLNPKILFSSREEQQDILSKFGKPELPRQPGSTAQYDAGAGSPEAEPTDSDSPPSSSADASRFLHTLDWQEEKEAETGAENASSKESESALMEDRDESEVSDEGGSPISSEGQEPRADPEPPGLAAGLVQQDLVFEVETPAVLPEPVPQEDGVDLLGLHSEVGAGPAVPPQACKAPSSNTDLLSCLLGPPEAASQGPPEDLLSEDPLLLASPAPPLSVQSTPRGGPPAAADPFGPLLPSSGNNSQPCSNPDLFGEFLNSDSVTVPPSFPSAHSAPPPSCSADFLHLGDLPGEPSKMTASSSNPDLLGGWAAWTETAASAVAPTPATEGPLFSPGGQPAPCGSQASWTKSQNPDPFADLGDLSSGLQGSPAGFPPGGFIPKTATTPKGSSSWQTSRPPAQGASWPPQAKPPPKACTQPRPNYASNFSVIGAREERGVRAPSFAQKPKVSENDFEDLLSNQGFSSRSDKKGPKTIAEMRKQDLAKDTDPLKLKLLDWIEGKERNIRALLSTLHTVLWDGESRWTPVGMADLVAPEQVKKHYRRAVLAVHPDKAAGQPYEQHAKMIFMELNDAWSEFENQGSRPLF
As for B1, the binding result is “binds”.
